# The other results are listed elsewhere or left out.
# B1: il10ra_site1_sap_19_mot_HHH_b1_06914_000000280_0001_1_18_H_._HHH_b2_02871_af2_0001_0000200012_0000001_0_0001 (protein)
# chain: SSSSAEELFKAVEEAIEEAAELWRNGDPEEAERVLEEILEEVEKRGDRIAALALEHLLRVLSSSS
# B2: il10ra_site1_sap_23_mot_HHH_b2_02022_af2_000000170_0001_1_16_H_._HHH_b1_03896_0001_0000100006_0000001_0_0001 (protein)
# chain: SSSSDLEERIEELIEEAKELLERGDPEEALHLLFEATHLALRLGNEELLQEVWRLFKELASSSSS
# B3: il10ra_site1_normal_mot_HHH_b1_06994_000000193_0001_40_55_H_._HHH_b1_00400_0001_0000100001_0000002_0 (protein)
# chain: SSSDKEERELVRAALRLVEQAVKAGDEETAEFLVISMELLAEELNDPELRELVEQAEELINSSSS
# B4: il10ra_site1_normal_mot_HHH_b2_04912_000000028_0001_1_20_H_._HHH_b1_06894_0001_0000300011_0000001_1 (protein)
# chain: SSSSSDLLQEVLELSKRAFRLALRGNPEEAREVLEEAAELAEELGNPDLLRVLRELLQALSSSSS
# B5: il10ra_site1_normal_mot_HHH_b2_06767_000000020_0001_41_56_H_._HHH_b1_04040_af2_0001_0000200011_0000001_0_af2pred_0001 (protein)
# chain: SSSSDREEVLQLLLEISRLLQEGNKEEAEELLEEVKELVEEIGDERLKLSVRFLEALVKSLSSSS
# B6: il10ra_site1_sap_21_mot_HHH_b1_05326_000000242_0001_1_20_H_._HHH_b1_00201_af2_0001_0000500048_0000001_0_0001 (protein)
# chain: SSSSDLHEQVFELLREAAELRSEGNPEEAREVVREALEIAEEMGSQLFEFNAEFVLRDIEESSSS
# B7: il10ra_site1_sap_7_mot_HHH_b1_06786_000000000_0001_1_20_H_._HHH_b2_05728_af2_0001_0000400011_0000001_0_0001 (protein)
# chain: SSSSSSSSVEEEVEELLEEAKHVSPEEATELLARALEVAYEGNNEELLREIWKVVEELSSSSSSS
# B8: il10ra_site1_sap_10_mot_HHH_b2_03038_000000109_0001_1_20_H_._HHH_b1_00021_af2_0001_0000300016_0000002_1_0001 (protein)
# chain: SSSSDLEELLEELKELIEEGDREKAAKLIQRIIRAAFRNSDPEALHAVWKLLRELEELAERSSSS
# B9: il10ra_site1_sap_23_mot_HHH_b1_05860_000000142_0001_1_19_H_._HHH_b1_02122_0001_0000100013_0000001_0_0001 (protein)
# chain: SSSSSSDVEEEIEELIEEARHIEDPHEALRVLKRALHLAFQIRNEELLQAIWRVARELSSSSSSS
# B10: il10ra_site1_normal_mot_HHH_b1_05937_af2_000000262_0001_20_37_H_._HHH_b1_00702_0001_0000200014_0000001_0 (protein)
# chain: SSSSDREEVEELLEELEEAYKEGDHEKFLRLIIRAARLIFRIGDDELMRLLHELAKRLASSSSSS
# B11: il10ra_site1_normal_mot_HHH_b2_00033_000000036_0001_41_54_H_._HHH_b1_01859_0001_0000400022_0000002_0 (protein)
# chain: SSSSSSEEEAEELVEELEELIRRGDHEKVIRASAEAVRIVMELGNEEAFQRLWELVKEFASSSSS
# B12: il10ra_site1_normal_mot_HHH_b2_06142_af2_000000101_0001_1_18_H_._HHH_b1_05714_0001_0000200009_0000002_0 (protein)
# chain: SSSDEEIERRAFQLLIEIFHLLRKGNREEAEELLKELEKLREELGDPSVQNALAAAEMLVKSSSS
# B13: il10ra_site1_sap_18_mot_HHH_b2_04679_000000194_0001_21_38_H_._HHH_b1_05122_0001_0000100001_0000001_0_0001 (protein)
# chain: SSSSDVRRRIQQLLVEAHHALWKGDREKAEELLEELEELVREHNDRKARLVVESLERIIEESSSS
# B14: il10ra_site1_sap_13_mot_8677146645409c09fa773dfa88d80d04_0001_1_000000098_0001_1_14_H_._HHH_b1_02768_0001_0000100002_0000002_0_0001 (protein)
# chain: SSSSDQAMEVVVKFVLEVAEETARKDPERARHQLEALLEHLRQAGDPELIEEVEELLEELSSSSS
# B15: il10ra_site1_normal_mot_HHH_b1_06914_000000280_0001_1_18_H_._HHH_b2_03127_0001_0000400018_0000001_0_af2pred_0001 (protein)
# chain: SSSSSLSERVYELLREAIEAHSEGDPEEAERIVEEAEELAEEGGNLNLLAIARFLLEIITSSSSS
# B16: il10ra_site1_normal_mot_HHH_b1_05697_000000276_0001_40_57_H_._HHH_b1_08314_af2_0001_0000300023_0000001_0_af2pred_0001 (protein)
# chain: SSSSDREEFHIEALLRLAELTAEAGNPKAARRKVEFAYKAAEELGNEELLEEAERLLKELSSSSS
# B17: il10ra_site1_sap_16_mot_HHH_b2_04592_000000276_0001_41_54_H_._a2bf7c1b5df5f4a6a28f683756f784c8_0001_1_0001_0000100002_0000001_0_0001 (protein)
# chain: SSSDESQRVYELLREAMELLDDGDEEEARELIEEAERLAEELNNWTFRRNVELLQRELEAISSSS
# B18: il10ra_site1_sap_27_mot_HHH_b1_03262_af2_000000181_0001_43_57_H_._ems_3hM_2924_af2_0001_0000200007_0000001_0_0001 (protein)
# chain: SSSSDADELYELLKKIIELFSEGDDEEAERLIEELEKLAKELNNWVILMVLRMILEELERRSSSS
# B19: il10ra_site1_sap_21_mot_HHH_b1_01693_000000146_0001_1_17_H_._HHH_b2_04774_0001_0000200019_0000002_0_0001 (protein)
# chain: SSSSSDDERSLKRMLEALERAVELGDEEYIRLATKFIKAMARAANDPEVEERAEELLREFGSSSS
# Biological target: il10ra, Q13651
# Assay: yeast display titration
row,Binder,apparent Kd
1,B1,inactive: no binding seen
2,B2,inactive: no binding seen
3,B3,inactive: no binding seen
4,B4,inactive: no binding seen
5,B5,inactive: no binding seen
6,B6,inactive: no binding seen
7,B7,inactive: no binding seen
8,B8,inactive: no binding seen
9,B9,inactive: no binding seen
10,B10,inactive: no binding seen
11,B11,inactive: no binding seen
12,B12,inactive: no binding seen
13,B13,inactive: no binding seen
14,B14,inactive: no binding seen
15,B15,inactive: no binding seen
16,B16,inactive: no binding seen
17,B17,inactive: no binding seen
18,B18,inactive: no binding seen
19,B19,inactive: no binding seen

# 2 records picked at random from the list so far:
row,Binder,apparent Kd
14,B14,inactive: no binding seen
3,B3,inactive: no binding seen

# Reference: PMC10163288
